Laboratory results published in publication PMC6646387, “Identification of intracellular cavin target proteins reveals cavin-PP1alpha interactions regulate apoptosis” (Nature Communications, 2019).

Protein sequences, listed by entry. Tags and fused reporters are not part of them.
UniProt Q13148: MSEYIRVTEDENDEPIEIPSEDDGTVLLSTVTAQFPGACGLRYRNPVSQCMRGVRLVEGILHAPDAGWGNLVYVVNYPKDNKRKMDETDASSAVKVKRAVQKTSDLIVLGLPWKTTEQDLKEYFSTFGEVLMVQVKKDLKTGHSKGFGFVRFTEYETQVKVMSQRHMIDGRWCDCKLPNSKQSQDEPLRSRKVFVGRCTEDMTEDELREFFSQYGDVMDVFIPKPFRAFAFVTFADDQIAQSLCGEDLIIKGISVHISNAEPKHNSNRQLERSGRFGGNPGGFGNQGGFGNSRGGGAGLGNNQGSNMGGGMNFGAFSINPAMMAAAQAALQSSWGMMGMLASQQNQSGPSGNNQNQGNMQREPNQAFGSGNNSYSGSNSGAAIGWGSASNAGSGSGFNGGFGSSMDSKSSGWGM
UniProt P08758: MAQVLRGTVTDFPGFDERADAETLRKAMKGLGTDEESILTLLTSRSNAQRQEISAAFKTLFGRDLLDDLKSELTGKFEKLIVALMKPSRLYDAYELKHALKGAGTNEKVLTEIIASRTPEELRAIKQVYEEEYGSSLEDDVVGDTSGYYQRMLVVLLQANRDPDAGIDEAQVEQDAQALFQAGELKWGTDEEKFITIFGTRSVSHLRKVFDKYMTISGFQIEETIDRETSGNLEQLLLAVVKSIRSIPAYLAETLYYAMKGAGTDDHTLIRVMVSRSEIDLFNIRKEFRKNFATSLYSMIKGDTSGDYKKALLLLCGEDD
UniProt P62136: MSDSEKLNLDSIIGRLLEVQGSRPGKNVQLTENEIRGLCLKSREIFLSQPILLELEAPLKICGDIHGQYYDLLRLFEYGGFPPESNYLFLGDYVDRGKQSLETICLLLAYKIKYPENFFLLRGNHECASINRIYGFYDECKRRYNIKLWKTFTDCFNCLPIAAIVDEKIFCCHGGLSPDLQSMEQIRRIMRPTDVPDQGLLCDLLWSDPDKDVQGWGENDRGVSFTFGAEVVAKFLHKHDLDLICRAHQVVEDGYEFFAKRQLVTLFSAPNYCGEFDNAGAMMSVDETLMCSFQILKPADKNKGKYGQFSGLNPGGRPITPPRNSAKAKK
UniProt Q92769: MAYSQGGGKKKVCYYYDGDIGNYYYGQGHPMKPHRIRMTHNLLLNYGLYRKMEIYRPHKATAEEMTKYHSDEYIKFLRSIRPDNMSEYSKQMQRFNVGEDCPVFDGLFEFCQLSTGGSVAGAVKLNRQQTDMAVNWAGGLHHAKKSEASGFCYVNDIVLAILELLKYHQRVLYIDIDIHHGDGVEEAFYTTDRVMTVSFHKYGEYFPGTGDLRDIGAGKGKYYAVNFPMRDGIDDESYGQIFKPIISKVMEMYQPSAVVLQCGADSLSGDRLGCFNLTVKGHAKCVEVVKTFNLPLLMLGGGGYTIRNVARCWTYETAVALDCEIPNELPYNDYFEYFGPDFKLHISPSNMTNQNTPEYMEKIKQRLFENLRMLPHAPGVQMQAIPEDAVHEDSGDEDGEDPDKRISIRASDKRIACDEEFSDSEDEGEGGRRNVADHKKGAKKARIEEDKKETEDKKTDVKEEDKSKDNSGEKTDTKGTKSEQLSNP
UniProt P14618: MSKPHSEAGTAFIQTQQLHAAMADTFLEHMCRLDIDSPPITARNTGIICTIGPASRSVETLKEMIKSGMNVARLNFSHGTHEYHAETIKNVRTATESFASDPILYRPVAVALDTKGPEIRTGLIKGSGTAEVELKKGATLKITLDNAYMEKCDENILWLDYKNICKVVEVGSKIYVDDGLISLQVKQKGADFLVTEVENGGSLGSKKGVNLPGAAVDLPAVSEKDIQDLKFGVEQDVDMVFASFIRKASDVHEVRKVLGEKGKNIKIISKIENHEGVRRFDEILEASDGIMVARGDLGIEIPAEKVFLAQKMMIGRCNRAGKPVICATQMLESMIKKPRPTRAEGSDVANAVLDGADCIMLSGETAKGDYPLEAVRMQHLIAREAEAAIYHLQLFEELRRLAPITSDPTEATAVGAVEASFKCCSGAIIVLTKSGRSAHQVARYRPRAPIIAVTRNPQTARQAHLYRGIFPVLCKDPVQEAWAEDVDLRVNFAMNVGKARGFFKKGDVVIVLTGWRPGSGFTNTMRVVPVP

T1: Cavin3-GFP (mouse) (UniProt Q91VJ2)
T1 sequence: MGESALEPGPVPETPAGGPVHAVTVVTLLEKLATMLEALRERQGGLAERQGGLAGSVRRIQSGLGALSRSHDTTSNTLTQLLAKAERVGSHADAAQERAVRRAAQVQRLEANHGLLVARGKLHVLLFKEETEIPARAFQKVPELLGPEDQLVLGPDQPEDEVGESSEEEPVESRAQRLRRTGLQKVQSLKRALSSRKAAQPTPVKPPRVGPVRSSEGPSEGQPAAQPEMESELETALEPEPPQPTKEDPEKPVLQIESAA

T2: Cavin3-BirA (mouse) (UniProt Q91VJ2)
T2 sequence: T1 sequence

B1: fructose-bisphosphate aldolase (FBA) A (enzyme, UniProt P04075 1-364)
chain: MPYQYPALTPEQKKELSDIAHRIVAPGKGILAADESTGSIAKRLQSIGTENTEENRRFYRQLLLTADDRVNPCIGGVILFHETLYQKADDGRPFPQVIKSKGGVVGIKVDKGVVPLAGTNGETTTQGLDGLSERCAQYKKDGADFAKWRCVLKIGEHTPSALAIMENANVLARYASICQQNGIVPIVEPEILPDGDHDLKRCQYVTEKVLAAVYKALSDHHIYLEGTLLKPNMVTPGHACTQKFSHEEIAMATVTALRRTVPPAVTGITFLSGGQSEEEASINLNAINKCPLLKPWALTFSYGRALQASALKAWGGKKENLKAAQEEYVKRALANSLACQGKYTPSGQAGAAASESLFVSNHAY
B2: gamma-glutamylcyclotransferase (GGCT) (enzyme, UniProt O75223 1-188)
chain: MANSGCKDVTGPDEESFLYFAYGSNLLTERIHLRNPSAAFFCVARLQDFKLDFGNSQGKTSQTWHGGIATIFQSPGDEVWGVVWKMNKSNLNSLDEQEGVKSGMYVVIEVKVATQEGKEITCRSYLMTNYESAPPSPQYKKIICMGAKENGLPLEYQEKLKAIEPNDYTGKVSEEIEDIIKKGETQTL
B3: peroxiredoxin-6 (PRDX6) (enzyme, UniProt P30041 1-224)
chain: MPGGLLLGDVAPNFEANTTVGRIRFHDFLGDSWGILFSHPRDFTPVCTTELGRAAKLAPEFAKRNVKLIALSIDSVEDHLAWSKDINAYNCEEPTEKLPFPIIDDRNRELAILLGMLDPAEKDEKGMPVTARVVFVFGPDKKLKLSILYPATTGRNFDEILRVVISLQLTAEKRVATPVDWKDGDSVMVLPTIPEEEAKKLFPKGVFTKELPSGKKYLRYTPQP

Columns and labels:
Cavin3-GFP (mouse) [1] = target: T1, Cavin3-GFP (mouse); assay: affinity purification with mass spectrometry; GFP Trap pulldown of Cavin3-GFP from A431 lysate (RIPA buffer), mass spectrometry; proteins found with GFP alone removed
Cavin3-GFP (mouse) [2] = target: T1, Cavin3-GFP (mouse); assay: affinity purification with mass spectrometry; GFP Trap pulldown of Cavin3-GFP from MCF-7 lysate (RIPA buffer), mass spectrometry; proteins found with GFP alone removed
Cavin3-BirA (mouse) = target: T2, Cavin3-BirA (mouse); assay: proximity labelling; BioID: Cavin3-BirA expressed in MCF-7 cells, 50 μM biotin 18 h, RIPA lysis, streptavidin agarose, mass spectrometry; proteins found with BirA alone removed, two or more peptides

Row | Molecule | binding (Cavin3-GFP (mouse) [1]) | binding (Cavin3-GFP (mouse) [2]) | binding (Cavin3-BirA (mouse))
1 | TAR DNA binding protein (TARDBP) 43 (from UniProt Q13148 1-414) | binds | binds | 
2 | annexin A5 (ANXA5) (from UniProt P08758 1-320) | binds | binds | 
3 | endogenous PP1α (from UniProt P62136 1-330) (enzyme) | binds | binds | binds
4 | histone deacetylase 2 (HDAC2) (from UniProt Q92769 1-488) (enzyme) | binds | binds | 
5 | pyruvate kinase M (PKM) (from UniProt P14618 1-531) (enzyme) |  |  | binds
6 | B1 |  |  | binds
7 | B2 | binds | binds | 
8 | B3 |  |  | binds

No constants are given. Whether binding was seen depends on the method and setting. In cells and extracts the contact can be indirect. A yes stands for co-enrichment or nearness to the bait. Other partners may have been found. For some assays here: Where a sequence is shown, tags or fusion partners need not be part of it.
